# Measured values: the supplement of paper PMC8728848
# This is one part of the list.
# B1: CcfD (Bacteroides fragilis), Q5L9G4 (protein)
# chain: MKKQNSIYTLLIALLCFVSSCDYLGVSDQLAGGLQNTEQVFDNVSYTKRWYANVFAGIPDYSGINSVNVGAFKNPWTGMCDELVVGYGNSSKYNNSDRNAANMGFHRYGDCYKYIRQANIFLQKAHPIMTTGTQGDQLLEDELTQMKANVRFMRAFYHYLLFEQYGPIILVKDKIYNATEDQDVPRNTVDEVIEYIDSELTAVASELTQEPIFEDKDYRAWPTKGVALAVRAKLWLYAASPLLNGGYREALSVTNPDGTRLFPDYDAGKWEKALAACKDFIDYAEAGRYELYKEYKDDNGAVIDPDKSVYNLFQKYTHEIIWATANNDWGGMNGDAFDRRIAPRCEKNGLGSTGVTQELVDAFYMKDGFPVSATAYLPQSTLYQEEGYGTYKDQNDNFSKKYTNVTVSNRYLNREPRFYNTVFFNGRQWPVSCNQVLFYNGGNSGVQEGQATLTGYMLFKRFNRSVSLTNPGVASQFRPSIIFRLADFYLMYAEAANEVNPNDARVLKYLNLVRERAGLPDIETLNPAIRGNQELQRAAIQRERQIELATEGQRYFDVRRWMIADKNGEGRQNGYVHGMNVRGESNDKEDFNRIVEASQIVFNRKMYLYPMPDSEMRKTKNLVQNPGW
# Key:
# Test in all cases: glycan array binding signal (z-score within array); higher = stronger binding
# Settings in all cases: glycan notation: IUPAC condensed, linker removed
# [1] = target: Fuc(a1-2)[Gal(a1-3)]Gal(b1-4)GlcNAc(b1-2)Man(a1-3)[Fuc(a1-2)[Gal(a1-3)]Gal(b1-4)GlcNAc(b1-2)Man(a1-6)]Man(b1-4)GlcNAc(b1-4)GlcNAc
# Method in brief: (§1)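 The Consortium for Functional Glycomics database supplied 3228 glycan arrays, of which those lacking an available protein sequence were dropped. The binding signal, a within-array Z-score, was averaged across arrays of the same protein sequence and across linkers. Negative scores can be read as non-binding.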
# [2] = target: Fuc(a1-2)[Gal(a1-3)]Gal(b1-4)GlcNAc(b1-2)Man(a1-3)[Fuc(a1-2)[Gal(a1-3)]Gal(b1-4)GlcNAc(b1-2)Man(a1-6)]Man(b1-4)GlcNAc(b1-4)[Fuc(a1-6)]GlcNAc
# Method in brief: as §1
# [3] = target: Fuc(a1-2)[Gal(a1-3)]Gal(b1-4)GlcNAc(b1-3)GalNAc
# Method in brief: as §1
# [4] = target: Fuc(a1-2)[Gal(a1-3)]Gal(b1-4)GlcNAc(b1-3)[Fuc(a1-2)[Gal(a1-3)]Gal(b1-4)GlcNAc(b1-6)]GalNAc
# Method in brief: as §1
# [5] = target: Fuc(a1-2)[Gal(a1-3)]Gal(b1-4)GlcNAc(b1-6)GalNAc
# Method in brief: as §1
# [6] = target: Fuc(a1-2)[Gal(a1-3)]Gal(b1-4)[Fuc(a1-3)]Glc
# Method in brief: as §1
# [7] = target: Fuc(a1-2)[Gal(a1-3)]Gal(b1-4)[Fuc(a1-3)]GlcNAc
# Method in brief: as §1
# [8] = target: Fuc(a1-2)[Gal(a1-3)]Gal(b1-4)[Fuc(a1-3)]GlcNAc(b1-3)GalNAc
# Method in brief: as §1
# [9] = target: Fuc(a1-2)[Gal(a1-4)]Gal(b1-4)GlcNAc
# Method in brief: as §1
# [10] = target: Fuc(a1-2)[GalNAc(a1-3)]Gal
# Method in brief: as §1
# [11] = target: Fuc(a1-2)[GalNAc(a1-3)]Gal(b1-3)GalNAc(a1-3)[Fuc(a1-2)]Gal(b1-4)GlcNAc
# Method in brief: as §1
# [12] = target: Fuc(a1-2)[GalNAc(a1-3)]Gal(b1-3)GalNAc(b1-3)Gal(a1-4)Gal(b1-4)Glc
# Method in brief: as §1
# [13] = target: Fuc(a1-2)[GalNAc(a1-3)]Gal(b1-3)GlcNAc
# Method in brief: as §1
# [14] = target: Fuc(a1-2)[GalNAc(a1-3)]Gal(b1-3)GlcNAc(b1-2)Man(a1-3)[Fuc(a1-2)[GalNAc(a1-3)]Gal(b1-3)GlcNAc(b1-2)Man(a1-6)]Man(b1-4)GlcNAc(b1-4)GlcNAc
# Method in brief: as §1
# [15] = target: Fuc(a1-2)[GalNAc(a1-3)]Gal(b1-3)GlcNAc(b1-2)Man(a1-3)[Fuc(a1-2)[GalNAc(a1-3)]Gal(b1-3)GlcNAc(b1-2)Man(a1-6)]Man(b1-4)GlcNAc(b1-4)[Fuc(a1-6)]GlcNAc
# Method in brief: as §1
# [16] = target: Fuc(a1-2)[GalNAc(a1-3)]Gal(b1-3)GlcNAc(b1-3)GalNAc
# Method in brief: as §1
# [17] = target: Fuc(a1-2)[GalNAc(a1-3)]Gal(b1-3)GlcNAc(b1-6)GalNAc
# Method in brief: as §1
# [18] = target: Fuc(a1-2)[GalNAc(a1-3)]Gal(b1-4)Glc
# Method in brief: as §1
# [19] = target: Fuc(a1-2)[GalNAc(a1-3)]Gal(b1-4)GlcNAc
# Method in brief: as §1
# [20] = target: Fuc(a1-2)[GalNAc(a1-3)]Gal(b1-4)GlcNAc(b1-2)Man
# Method in brief: as §1
# [21] = target: Fuc(a1-2)[GalNAc(a1-3)]Gal(b1-4)GlcNAc(b1-2)Man(a1-3)[Fuc(a1-2)[GalNAc(a1-3)]Gal(b1-4)GlcNAc(b1-2)Man(a1-6)]Man(b1-4)GlcNAc(b1-4)GlcNAc
# Method in brief: as §1
# [22] = target: Fuc(a1-2)[GalNAc(a1-3)]Gal(b1-4)GlcNAc(b1-2)Man(a1-3)[Fuc(a1-2)[GalNAc(a1-3)]Gal(b1-4)GlcNAc(b1-2)Man(a1-6)]Man(b1-4)GlcNAc(b1-4)[Fuc(a1-6)]GlcNAc
# Method in brief: as §1
# [23] = target: Fuc(a1-2)[GalNAc(a1-3)]Gal(b1-4)GlcNAc(b1-3)Gal(b1-4)GlcNAc
# Method in brief: as §1
# [24] = target: Fuc(a1-2)[GalNAc(a1-3)]Gal(b1-4)GlcNAc(b1-3)Gal(b1-4)GlcNAc(b1-3)Gal(b1-4)GlcNAc
# Method in brief: as §1
# [25] = target: Fuc(a1-2)[GalNAc(a1-3)]Gal(b1-4)GlcNAc(b1-3)GalNAc
# Method in brief: as §1
# [26] = target: Fuc(a1-2)[GalNAc(a1-3)]Gal(b1-4)GlcNAc(b1-3)[Fuc(a1-2)[GalNAc(a1-3)]Gal(b1-4)GlcNAc(b1-6)]GalNAc
# Method in brief: as §1
# [27] = target: Fuc(a1-2)[GalNAc(a1-3)]Gal(b1-4)GlcNAc(b1-6)GalNAc
# Method in brief: as §1
# [28] = target: Fuc(a1-2)[GalNAc(a1-3)]Gal(b1-4)[Fuc(a1-3)]GlcNAc
# Method in brief: as §1
# [29] = target: Fuc(a1-2)[GalNAc(a1-3)]Gal(b1-4)[Fuc(a1-3)]GlcNAc(b1-3)GalNAc
# Method in brief: as §1
# [30] = target: Fuc(a1-2)[GalNAc(a1-4)]Gal(b1-4)GlcNAc
# Method in brief: as §1
binder,measurement,setting,value
B1,glycan array binding signal (z-score),[1],-0.292
same,glycan array binding signal (z-score),[2],-1.55
same,glycan array binding signal (z-score),[3],-0.706
same,glycan array binding signal (z-score),[4],-0.923
same,glycan array binding signal (z-score),[5],-0.384
same,glycan array binding signal (z-score),[6],-0.253
same,glycan array binding signal (z-score),[7],0.121
same,glycan array binding signal (z-score),[8],0.64
same,glycan array binding signal (z-score),[9],-0.062
same,glycan array binding signal (z-score),[10],-0.43
same,glycan array binding signal (z-score),[11],2.62
same,glycan array binding signal (z-score),[12],1.77
same,glycan array binding signal (z-score),[13],-0.529
same,glycan array binding signal (z-score),[14],-0.062
same,glycan array binding signal (z-score),[15],0.279
same,glycan array binding signal (z-score),[16],0.758
same,glycan array binding signal (z-score),[17],0.161
same,glycan array binding signal (z-score),[18],-0.542
same,glycan array binding signal (z-score),[19],-0.732
same,glycan array binding signal (z-score),[20],-0.161
same,glycan array binding signal (z-score),[21],1.84
same,glycan array binding signal (z-score),[22],-0.03
same,glycan array binding signal (z-score),[23],1.34
same,glycan array binding signal (z-score),[24],-1.07
same,glycan array binding signal (z-score),[25],0.056
same,glycan array binding signal (z-score),[26],1.13
same,glycan array binding signal (z-score),[27],-1.16
same,glycan array binding signal (z-score),[28],0.095
same,glycan array binding signal (z-score),[29],0.975
same,glycan array binding signal (z-score),[30],-0.982

# 2 successive entries from above, quoted:
binder,measurement,setting,value
B1,glycan array binding signal (z-score),[28],0.095
same,glycan array binding signal (z-score),[29],0.975
